# Assay results: the supplement of paper PMC12067093, “Discovery and optimisation of a covalent ligand for TRIM25 and its application to targeted protein ubiquitination” (Chemical Science, 2025)
# Sequences of proteins named here, by UniProt entry; tags and fusion partners are left off. A change or cut given only in a name is not applied to a line headed by its entry.
# UniProt P20645: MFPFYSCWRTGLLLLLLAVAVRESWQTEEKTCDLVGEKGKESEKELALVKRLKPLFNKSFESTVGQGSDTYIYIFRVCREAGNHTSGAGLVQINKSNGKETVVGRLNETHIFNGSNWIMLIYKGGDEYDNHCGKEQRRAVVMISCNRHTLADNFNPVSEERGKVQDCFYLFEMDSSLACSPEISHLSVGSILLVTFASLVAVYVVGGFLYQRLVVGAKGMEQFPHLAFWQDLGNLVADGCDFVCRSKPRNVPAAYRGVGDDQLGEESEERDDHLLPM
# UniProt O60449: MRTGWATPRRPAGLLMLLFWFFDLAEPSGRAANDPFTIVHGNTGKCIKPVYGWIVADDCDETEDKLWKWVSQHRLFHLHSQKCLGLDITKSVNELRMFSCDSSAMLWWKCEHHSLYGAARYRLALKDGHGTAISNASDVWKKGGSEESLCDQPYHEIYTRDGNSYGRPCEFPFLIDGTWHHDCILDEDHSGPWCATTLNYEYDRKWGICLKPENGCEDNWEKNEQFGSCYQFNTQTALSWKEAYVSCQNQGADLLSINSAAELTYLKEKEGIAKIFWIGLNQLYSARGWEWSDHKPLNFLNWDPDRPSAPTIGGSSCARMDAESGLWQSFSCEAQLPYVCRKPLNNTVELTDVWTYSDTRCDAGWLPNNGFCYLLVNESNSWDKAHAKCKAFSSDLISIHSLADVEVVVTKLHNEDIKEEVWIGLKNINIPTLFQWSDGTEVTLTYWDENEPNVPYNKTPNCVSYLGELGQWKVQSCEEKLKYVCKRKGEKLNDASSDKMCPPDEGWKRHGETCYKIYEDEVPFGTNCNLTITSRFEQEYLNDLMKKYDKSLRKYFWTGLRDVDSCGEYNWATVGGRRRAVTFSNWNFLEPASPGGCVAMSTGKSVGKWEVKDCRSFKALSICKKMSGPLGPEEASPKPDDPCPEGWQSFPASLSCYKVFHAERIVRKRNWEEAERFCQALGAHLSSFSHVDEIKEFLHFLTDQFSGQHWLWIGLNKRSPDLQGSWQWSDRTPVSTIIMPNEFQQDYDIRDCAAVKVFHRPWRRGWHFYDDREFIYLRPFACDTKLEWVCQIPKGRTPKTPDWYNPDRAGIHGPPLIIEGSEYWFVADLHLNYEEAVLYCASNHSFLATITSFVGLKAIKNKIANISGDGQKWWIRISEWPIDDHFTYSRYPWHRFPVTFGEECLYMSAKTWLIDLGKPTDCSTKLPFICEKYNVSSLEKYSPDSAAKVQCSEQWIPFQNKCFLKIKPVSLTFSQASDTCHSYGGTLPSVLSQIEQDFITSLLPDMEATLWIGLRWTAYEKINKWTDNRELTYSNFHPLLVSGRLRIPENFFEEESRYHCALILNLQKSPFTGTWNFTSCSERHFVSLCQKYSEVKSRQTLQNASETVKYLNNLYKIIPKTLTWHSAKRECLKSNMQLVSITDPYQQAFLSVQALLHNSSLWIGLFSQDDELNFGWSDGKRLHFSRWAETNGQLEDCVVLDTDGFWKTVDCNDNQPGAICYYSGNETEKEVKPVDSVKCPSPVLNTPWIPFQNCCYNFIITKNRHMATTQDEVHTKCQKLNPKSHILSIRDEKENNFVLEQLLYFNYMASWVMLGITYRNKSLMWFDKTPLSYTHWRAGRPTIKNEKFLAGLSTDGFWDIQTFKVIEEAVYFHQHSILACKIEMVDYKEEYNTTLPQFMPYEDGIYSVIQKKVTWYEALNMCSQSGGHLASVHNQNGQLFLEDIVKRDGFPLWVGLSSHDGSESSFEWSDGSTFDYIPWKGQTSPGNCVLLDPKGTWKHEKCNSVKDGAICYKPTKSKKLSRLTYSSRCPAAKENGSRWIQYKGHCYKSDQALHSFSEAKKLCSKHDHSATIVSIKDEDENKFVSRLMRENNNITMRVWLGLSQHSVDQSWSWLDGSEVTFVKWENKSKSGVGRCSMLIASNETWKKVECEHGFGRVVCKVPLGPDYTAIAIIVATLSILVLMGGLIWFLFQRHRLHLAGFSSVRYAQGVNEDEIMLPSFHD
# UniProt Q7L5Y9: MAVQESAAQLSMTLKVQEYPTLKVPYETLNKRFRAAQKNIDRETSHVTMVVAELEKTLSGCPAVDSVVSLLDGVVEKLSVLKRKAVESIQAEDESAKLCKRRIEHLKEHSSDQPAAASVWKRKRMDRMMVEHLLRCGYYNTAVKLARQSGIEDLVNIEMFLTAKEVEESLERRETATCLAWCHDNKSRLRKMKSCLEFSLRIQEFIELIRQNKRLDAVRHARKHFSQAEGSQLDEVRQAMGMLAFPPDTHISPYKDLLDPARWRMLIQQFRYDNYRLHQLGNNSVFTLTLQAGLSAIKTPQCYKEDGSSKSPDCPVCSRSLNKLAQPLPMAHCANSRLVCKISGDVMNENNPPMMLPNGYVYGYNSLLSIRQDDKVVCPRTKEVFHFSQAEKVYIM
# UniProt Q9P2G4: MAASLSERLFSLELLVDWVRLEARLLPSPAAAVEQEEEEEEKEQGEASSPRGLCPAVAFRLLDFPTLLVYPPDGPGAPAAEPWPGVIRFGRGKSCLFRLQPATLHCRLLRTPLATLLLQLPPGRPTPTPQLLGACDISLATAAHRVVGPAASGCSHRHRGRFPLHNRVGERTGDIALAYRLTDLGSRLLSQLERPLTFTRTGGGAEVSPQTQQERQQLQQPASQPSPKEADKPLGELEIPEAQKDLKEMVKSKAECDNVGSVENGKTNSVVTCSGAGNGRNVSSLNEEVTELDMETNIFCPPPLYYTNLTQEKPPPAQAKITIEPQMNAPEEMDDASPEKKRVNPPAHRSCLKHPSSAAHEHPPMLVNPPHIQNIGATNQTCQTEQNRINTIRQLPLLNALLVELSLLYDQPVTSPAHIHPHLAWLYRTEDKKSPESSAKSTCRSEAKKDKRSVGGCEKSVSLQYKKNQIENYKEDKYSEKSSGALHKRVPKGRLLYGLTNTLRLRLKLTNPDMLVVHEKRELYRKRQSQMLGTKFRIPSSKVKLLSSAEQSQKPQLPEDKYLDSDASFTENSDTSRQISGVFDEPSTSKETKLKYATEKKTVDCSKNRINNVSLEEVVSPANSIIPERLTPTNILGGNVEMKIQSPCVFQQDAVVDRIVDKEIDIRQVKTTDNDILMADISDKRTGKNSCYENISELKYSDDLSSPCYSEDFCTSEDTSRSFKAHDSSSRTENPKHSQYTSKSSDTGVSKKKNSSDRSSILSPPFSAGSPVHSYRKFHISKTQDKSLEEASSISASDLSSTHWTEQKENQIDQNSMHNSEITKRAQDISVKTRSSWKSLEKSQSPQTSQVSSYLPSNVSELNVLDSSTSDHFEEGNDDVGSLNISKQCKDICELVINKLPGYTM
# UniProt P56270: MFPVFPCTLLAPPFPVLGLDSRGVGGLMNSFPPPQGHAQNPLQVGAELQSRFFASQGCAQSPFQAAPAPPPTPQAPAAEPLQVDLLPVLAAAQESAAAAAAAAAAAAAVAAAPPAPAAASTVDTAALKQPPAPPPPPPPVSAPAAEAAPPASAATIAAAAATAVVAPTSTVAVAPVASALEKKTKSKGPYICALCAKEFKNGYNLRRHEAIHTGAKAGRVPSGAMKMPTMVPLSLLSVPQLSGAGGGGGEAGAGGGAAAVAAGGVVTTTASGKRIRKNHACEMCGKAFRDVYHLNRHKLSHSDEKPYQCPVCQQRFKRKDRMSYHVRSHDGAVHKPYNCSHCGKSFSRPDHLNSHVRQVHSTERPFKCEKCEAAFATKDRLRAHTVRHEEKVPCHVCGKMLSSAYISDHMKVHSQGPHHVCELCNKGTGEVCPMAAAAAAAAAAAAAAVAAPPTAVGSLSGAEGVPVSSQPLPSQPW
# UniProt Q9UIS9: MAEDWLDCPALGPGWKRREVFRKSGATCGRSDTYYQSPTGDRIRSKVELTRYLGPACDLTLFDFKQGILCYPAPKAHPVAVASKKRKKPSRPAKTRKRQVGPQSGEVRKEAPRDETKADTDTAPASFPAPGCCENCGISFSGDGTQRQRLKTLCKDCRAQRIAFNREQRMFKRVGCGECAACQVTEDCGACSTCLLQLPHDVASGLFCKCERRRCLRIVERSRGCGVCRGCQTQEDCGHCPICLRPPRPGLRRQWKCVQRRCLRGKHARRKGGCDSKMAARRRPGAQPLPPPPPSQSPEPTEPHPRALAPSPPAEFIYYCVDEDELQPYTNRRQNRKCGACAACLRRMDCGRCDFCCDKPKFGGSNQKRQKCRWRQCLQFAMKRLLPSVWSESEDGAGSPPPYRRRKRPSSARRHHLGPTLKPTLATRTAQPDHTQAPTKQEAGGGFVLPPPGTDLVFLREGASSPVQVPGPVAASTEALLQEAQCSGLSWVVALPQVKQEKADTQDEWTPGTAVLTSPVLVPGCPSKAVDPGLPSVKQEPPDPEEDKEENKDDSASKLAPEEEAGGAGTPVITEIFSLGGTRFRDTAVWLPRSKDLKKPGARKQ
# UniProt Q66K74: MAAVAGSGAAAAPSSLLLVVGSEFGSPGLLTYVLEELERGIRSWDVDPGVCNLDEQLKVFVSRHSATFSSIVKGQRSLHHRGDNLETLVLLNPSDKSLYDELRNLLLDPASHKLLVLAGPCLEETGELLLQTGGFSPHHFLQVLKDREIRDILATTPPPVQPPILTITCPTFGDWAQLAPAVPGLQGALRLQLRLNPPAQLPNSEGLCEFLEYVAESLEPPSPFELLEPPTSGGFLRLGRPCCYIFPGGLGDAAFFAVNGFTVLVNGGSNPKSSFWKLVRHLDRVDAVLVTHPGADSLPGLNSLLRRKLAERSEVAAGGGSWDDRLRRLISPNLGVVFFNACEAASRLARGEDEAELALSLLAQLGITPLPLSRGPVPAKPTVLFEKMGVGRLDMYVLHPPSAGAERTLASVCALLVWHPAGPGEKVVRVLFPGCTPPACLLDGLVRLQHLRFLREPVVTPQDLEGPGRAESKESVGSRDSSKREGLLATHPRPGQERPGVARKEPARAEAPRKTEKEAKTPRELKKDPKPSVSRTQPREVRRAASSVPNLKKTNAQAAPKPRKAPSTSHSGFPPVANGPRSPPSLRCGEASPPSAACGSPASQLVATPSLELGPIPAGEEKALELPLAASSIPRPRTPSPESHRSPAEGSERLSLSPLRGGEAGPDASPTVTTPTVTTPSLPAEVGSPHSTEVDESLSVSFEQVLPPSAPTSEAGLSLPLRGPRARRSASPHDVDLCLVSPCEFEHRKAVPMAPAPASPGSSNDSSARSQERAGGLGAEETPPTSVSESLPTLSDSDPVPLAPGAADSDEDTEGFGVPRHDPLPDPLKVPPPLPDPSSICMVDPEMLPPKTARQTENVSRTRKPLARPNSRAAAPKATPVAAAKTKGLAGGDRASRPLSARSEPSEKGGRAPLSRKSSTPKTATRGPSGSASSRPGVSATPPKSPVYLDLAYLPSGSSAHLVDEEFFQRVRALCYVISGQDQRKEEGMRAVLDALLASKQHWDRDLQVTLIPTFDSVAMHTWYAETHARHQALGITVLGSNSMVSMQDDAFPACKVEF
# UniProt Q9NTJ4: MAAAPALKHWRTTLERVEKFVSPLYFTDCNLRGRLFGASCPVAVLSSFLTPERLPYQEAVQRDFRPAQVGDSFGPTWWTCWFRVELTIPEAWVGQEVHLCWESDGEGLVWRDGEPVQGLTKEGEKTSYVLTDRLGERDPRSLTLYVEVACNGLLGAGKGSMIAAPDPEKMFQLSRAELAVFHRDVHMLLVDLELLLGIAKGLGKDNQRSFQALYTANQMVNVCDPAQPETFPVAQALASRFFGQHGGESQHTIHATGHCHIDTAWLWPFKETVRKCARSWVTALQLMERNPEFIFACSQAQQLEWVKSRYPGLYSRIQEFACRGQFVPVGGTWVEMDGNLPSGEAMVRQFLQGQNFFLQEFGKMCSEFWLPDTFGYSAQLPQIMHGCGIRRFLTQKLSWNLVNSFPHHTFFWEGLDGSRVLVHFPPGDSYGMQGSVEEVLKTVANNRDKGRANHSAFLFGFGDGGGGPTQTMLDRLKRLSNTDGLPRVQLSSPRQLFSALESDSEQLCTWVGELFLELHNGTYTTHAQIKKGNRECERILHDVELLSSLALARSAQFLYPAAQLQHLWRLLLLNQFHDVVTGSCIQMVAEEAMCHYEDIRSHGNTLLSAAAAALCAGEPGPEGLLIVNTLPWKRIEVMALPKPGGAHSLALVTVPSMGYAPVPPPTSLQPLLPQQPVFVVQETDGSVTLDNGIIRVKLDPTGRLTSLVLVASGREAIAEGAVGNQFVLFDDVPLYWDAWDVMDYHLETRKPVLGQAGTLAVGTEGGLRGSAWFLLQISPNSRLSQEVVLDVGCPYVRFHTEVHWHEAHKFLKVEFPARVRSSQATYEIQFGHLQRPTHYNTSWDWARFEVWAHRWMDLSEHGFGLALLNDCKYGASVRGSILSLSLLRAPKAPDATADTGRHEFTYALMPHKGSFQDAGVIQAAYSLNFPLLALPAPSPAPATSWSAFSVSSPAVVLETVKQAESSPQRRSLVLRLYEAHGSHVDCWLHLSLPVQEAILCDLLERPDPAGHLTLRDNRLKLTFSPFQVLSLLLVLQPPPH
# The other results are listed elsewhere or left out.
# Compound: Cc1cc(ccc1-c1ccccc1)C(=O)N1CCCN(CC1)C(=O)CCl [compound 10]
# Test: probe-labelled cysteine peptide fold change vs DMSO (competition) (log2 fold change); higher = less target engagement (more negative = stronger competition)
# Conditions: THP-1, incubation time: 4 h
# 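Also: competitive profiling in live THP-1 cells: cysteine peptides tagged with an iodoacetamide desthiobiotin (IA-DTB) probe, intensity after compound treatment relative to DMSO-treated cells.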
target,measurement,setting,value
MBD2_Q9UBB5_152_MDCPALPPGWK (UniProt Q9UBB5),probe-labelled cysteine peptide fold change,10 µM,0.149
same,probe-labelled cysteine peptide fold change,50 µM,-0.0385
M6PR_P20645_145_AVVMISCNR (UniProt P20645),probe-labelled cysteine peptide fold change,10 µM,-0.268
same,probe-labelled cysteine peptide fold change,50 µM,-0.155
MAP7D3_Q8IWC1_264_CTSDELR (UniProt Q8IWC1),probe-labelled cysteine peptide fold change,10 µM,-0.104
same,probe-labelled cysteine peptide fold change,50 µM,-0.466
LYAR_Q9NX58_25_HVSVCR (UniProt Q9NX58),probe-labelled cysteine peptide fold change,10 µM,0.265
same,probe-labelled cysteine peptide fold change,50 µM,-0.0267
MBTPS2_O43462_386_SSSSSFCIIPSLETHTR (UniProt O43462),probe-labelled cysteine peptide fold change,10 µM,0.093
same,probe-labelled cysteine peptide fold change,50 µM,0.0827
LY75_O60449_83_CLGLDITK (UniProt O60449),probe-labelled cysteine peptide fold change,10 µM,-0.168
same,probe-labelled cysteine peptide fold change,50 µM,-0.105
MAD1L1_Q9Y6D9_134_QCQQNLDAASK (UniProt Q9Y6D9),probe-labelled cysteine peptide fold change,10 µM,-0.306
same,probe-labelled cysteine peptide fold change,50 µM,-0.116
MATR3_P43243_552_EDAMAMVDHCLKK (UniProt P43243),probe-labelled cysteine peptide fold change,10 µM,0.0281
same,probe-labelled cysteine peptide fold change,50 µM,-0.274
MAEA_Q7L5Y9_61_TLSGCPAVDSVVSLLDGVVEK (UniProt Q7L5Y9),probe-labelled cysteine peptide fold change,10 µM,0.184
same,probe-labelled cysteine peptide fold change,50 µM,-0.0988
MASP1_P48740-2_630_LPVVPHAECK (UniProt P48740),probe-labelled cysteine peptide fold change,10 µM,-0.427
same,probe-labelled cysteine peptide fold change,50 µM,-0.337
MBD4_O95243_296_TVCISDAGACGETLSVTSEENSLVK (UniProt O95243),probe-labelled cysteine peptide fold change,10 µM,-0.0617
same,probe-labelled cysteine peptide fold change,50 µM,0.132
MAP4_P27816_67_KKPCSETSQIEDTPSSKPTLLANGGHGVEGSDTTGSPTEFLEEK (UniProt P27816),probe-labelled cysteine peptide fold change,10 µM,-0.0589
same,probe-labelled cysteine peptide fold change,50 µM,-0.83
MAP10_Q9P2G4_273_TNSVVTCSGAGNGR (UniProt Q9P2G4),probe-labelled cysteine peptide fold change,10 µM,-0.369
same,probe-labelled cysteine peptide fold change,50 µM,-0.505
MACF1_Q9UPN3_5309_DCDVQGLEHDMEEINAR (UniProt Q9UPN3),probe-labelled cysteine peptide fold change,10 µM,0.0885
same,probe-labelled cysteine peptide fold change,50 µM,0.126
LYST_Q99698_2965_CYLTIPNK (UniProt Q99698),probe-labelled cysteine peptide fold change,10 µM,-0.0985
same,probe-labelled cysteine peptide fold change,50 µM,-0.117
MAP3K1_Q13233_667_AMLVYTPCHSLAER (UniProt Q13233),probe-labelled cysteine peptide fold change,10 µM,0.0391
same,probe-labelled cysteine peptide fold change,50 µM,0.498
LUC7L_Q9NQ29_44_SHLLDCCPHDILAGTR (UniProt Q9NQ29),probe-labelled cysteine peptide fold change,10 µM,0.196
same,probe-labelled cysteine peptide fold change,50 µM,-0.12
MAIP1_Q8WWC4_162_LLSQCK (UniProt Q8WWC4),probe-labelled cysteine peptide fold change,10 µM,-0.148
same,probe-labelled cysteine peptide fold change,50 µM,0.218
MCCC1_Q96RQ3_600_CSVNGVASK (UniProt Q96RQ3),probe-labelled cysteine peptide fold change,10 µM,0.185
same,probe-labelled cysteine peptide fold change,50 µM,0.0796
MAEA_Q7L5Y9_136_CGYYNTAVK (UniProt Q7L5Y9),probe-labelled cysteine peptide fold change,10 µM,0.182
same,probe-labelled cysteine peptide fold change,50 µM,-0.0564
MAT2A_P31153_104_TCNVLVALEQQSPDIAQGVHLDR (UniProt P31153),probe-labelled cysteine peptide fold change,10 µM,0.185
same,probe-labelled cysteine peptide fold change,50 µM,0.228
MAP3K8_P41279_398_CQSLDSALLER (UniProt P41279),probe-labelled cysteine peptide fold change,10 µM,-0.276
same,probe-labelled cysteine peptide fold change,50 µM,-0.883
MBIP_Q9NS73_243_DCGNQAVEER (UniProt Q9NS73),probe-labelled cysteine peptide fold change,10 µM,-0.149
same,probe-labelled cysteine peptide fold change,50 µM,0.0308
MACF1_Q9UPN3_3173_HQISSSNECK (UniProt Q9UPN3),probe-labelled cysteine peptide fold change,10 µM,-0.0495
same,probe-labelled cysteine peptide fold change,50 µM,-0.17
MAP3K20_Q9NYL2_571_SDSSADCQWLDTLR (UniProt Q9NYL2),probe-labelled cysteine peptide fold change,10 µM,-0.155
same,probe-labelled cysteine peptide fold change,50 µM,-0.343
LYN_P07948_381_AANVLVSESLMCK (UniProt P07948),probe-labelled cysteine peptide fold change,10 µM,0.104
same,probe-labelled cysteine peptide fold change,50 µM,0.0654
MAT1A_Q00266_34_ICDQISDAVLDAHLK (UniProt Q00266),probe-labelled cysteine peptide fold change,10 µM,-0.542
same,probe-labelled cysteine peptide fold change,50 µM,-0.336
MACROD1_Q9BQ69_246_SCYLSSLDLLLEHR (UniProt Q9BQ69),probe-labelled cysteine peptide fold change,10 µM,0.141
same,probe-labelled cysteine peptide fold change,50 µM,-0.163
MAPRE2_Q15555_279_EIELLCQEHGQENDDLVQR (UniProt Q15555),probe-labelled cysteine peptide fold change,10 µM,-0.115
same,probe-labelled cysteine peptide fold change,50 µM,-0.171
MAZ_P56270_424_VHSQGPHHVCELCNK (UniProt P56270),probe-labelled cysteine peptide fold change,10 µM,0.033
same,probe-labelled cysteine peptide fold change,50 µM,-0.236
MBD1_Q9UIS9_28_SGATCGR (UniProt Q9UIS9),probe-labelled cysteine peptide fold change,10 µM,-0.113
same,probe-labelled cysteine peptide fold change,50 µM,-0.191
LY75_O60449_501_MCPPDEGWKR (UniProt O60449),probe-labelled cysteine peptide fold change,10 µM,-0.278
same,probe-labelled cysteine peptide fold change,50 µM,-0.29
MAVS_Q7Z434_133_TSDRPPDPLEPPSLPAERPGPPTPAAAHSIPYNSCR (UniProt Q7Z434),probe-labelled cysteine peptide fold change,10 µM,-0.0559
same,probe-labelled cysteine peptide fold change,50 µM,-0.222
MAN1A2_O60476_462_MGHLACFAGGMFALGADGSR (UniProt O60476),probe-labelled cysteine peptide fold change,10 µM,-0.299
same,probe-labelled cysteine peptide fold change,50 µM,-0.149
MACF1_Q9UPN3_5188_LDIEASEAECR (UniProt Q9UPN3),probe-labelled cysteine peptide fold change,10 µM,0.0743
same,probe-labelled cysteine peptide fold change,50 µM,0.184
MAPK13_O15264_162_DLKPGNLAVNEDCELK (UniProt O15264),probe-labelled cysteine peptide fold change,10 µM,-0.0959
same,probe-labelled cysteine peptide fold change,50 µM,-0.21
MAPK3_P27361_82_KISPFEHQTYCQR (UniProt P27361),probe-labelled cysteine peptide fold change,10 µM,-0.0395
same,probe-labelled cysteine peptide fold change,50 µM,-0.187
MAP1S_Q66K74_342_LISPNLGVVFFNACEAASR (UniProt Q66K74),probe-labelled cysteine peptide fold change,10 µM,0.00489
same,probe-labelled cysteine peptide fold change,50 µM,-0.0757
MACF1_Q9UPN3_3315_TVSLTVCSAVK (UniProt Q9UPN3),probe-labelled cysteine peptide fold change,10 µM,-0.302
same,probe-labelled cysteine peptide fold change,50 µM,-0.418
MAN2C1_Q9NTJ4_871_WMDLSEHGFGLALLNDCK (UniProt Q9NTJ4),probe-labelled cysteine peptide fold change,10 µM,0.238
same,probe-labelled cysteine peptide fold change,50 µM,0.569
LUC7L3_O95232_58_SDLGPCEK (UniProt O95232),probe-labelled cysteine peptide fold change,10 µM,-0.112
same,probe-labelled cysteine peptide fold change,50 µM,-0.363
